Results: PubChem BioAssay AID2685 (National Center for Advancing Translational Sciences (NCATS), 2010)
The list shows a part of the results. These are further read-outs of the screen, such as a control signal, another cell line or another target. No call is given for them. Compounds called inactive in the main read-out are mostly missing here. Potencies come from curve fits of mixed quality, noted in brackets.

Assay: qHTS Assay for Lipid Storage Modulators in Drosophila S3 Cells;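 as to cell number change: cells counted by Cell Tracker Red CMTPX staining in the red channel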
Conditions: BODIPY lipid droplet fluorescence, 18-24 h; for cell number change: measured here: cell count max response, cells fed with added oleic acid
Method in brief: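 Laser-scanning cytometry quantifies lipid droplet accumulation (500–530 nm total intensity; droplet/cell object ratio) in oleic acid-fed (400 uM added) Drosophila S3 cells treated with a concentration series. 20 uM Triacsin C defined 100% inhibition.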

[1] = measured here: cell number channel AC50, cells fed with added oleic acid
[2] = measured here: lipid fluorescence (Fed channel) AC50, cells fed with added oleic acid

| SMILES | cell number change [%] | AC50 [1] | AC50 [2] |
| --- | --- | --- | --- |
| CCCc1cc(=O)n(-c2nc3ccccc3s2)[nH]1 | -33 | 0.184 µM [falling, full curve, poor fit] |  |
| CC1=NN(c2ccccc2)C(=O)/C1=C\N1CC(C)OC(C)C1 (centres undefined) | 30.1 | 18.4 µM [rising, single point] | 18.4 µM [rising, single point] |
| CC(C)CCNC(=O)c1c[nH]c2ccc(S(=O)(=O)N3CCC4(CC3)OCCO4)cc2c1=O | 9.74 |  | 0.731 µM [rising, full curve, poor fit] |
| COc1cc(/C=N/n2c(C)nc3ccccc3c2=O)ccc1O | 14.9 |  |  |
| CCCCn1c(-c2csc3c2CCC(C)C3)n[nH]c1=S (centres undefined) | -61.8 | 14.6 µM [falling, partial curve] | 11.6 µM [falling, partial curve] |
| CCCCOC(=O)C1=C(C)Nc2ncnn2C1c1cccc(OC)c1 (centres undefined) | -31.8 | 29.1 µM [falling, single point] |  |
| O=c1c2ccc(Cl)cc2nc(-c2ccc([N+](=O)[O-])cc2)n1O | -49.4 | 29.1 µM [falling, single point] |  |
| C/C(=N\N=C\c1ccccc1)c1nnn(-c2nonc2N)c1C | 29.2 |  | 32.6 µM [rising, partial curve, poor fit] |
| CC(=O)N1CCc2c(sc(NC(=O)Cc3ccc(C)cc3C)c2C#N)C1 | 36.6 | 18.4 µM [rising, single point] |  |
| Cc1cc2c(c(=O)n1Cc1ccccc1)C1O[C@](CCCCN3C(=O)c4ccccc4C3=O)(Cc3cc(C#N)ccc31)O2 | 19.8 |  |  |
| COC(=O)C(C(=O)OC)N1C(=O)CCC1=O | -226 | 29.1 µM [falling, partial curve] | 25.9 µM [falling, partial curve] |
| Cc1ccc(F)cc1NC(=O)CCNC(=O)c1ccc([N+](=O)[O-])cc1 | 14.1 |  | 6.51 µM [falling, single point] |
| CC(C)C(=O)Nc1ccc(Cc2ccc(NC(=O)C(C)C)c(O)c2)cc1O | 1.98 | 6.51 µM [falling, single point] |  |
| O=C(O)/C=C/C(=O)N1CCN(c2cccc(Cl)c2)CC1 | 34.4 | 16.4 µM [rising, single point] |  |
| COc1ccc(S(=O)(=O)NCC(=O)N(CC(=O)NCC2CCCO2)c2c(C)cccc2C)cc1 (centres undefined) | 47.5 | 20.6 µM [rising, single point] |  |
| Cc1cccc(C(C)C)c1NC(=O)Cc1ccc(S(=O)(=O)N2CCOCC2)s1 | -28.7 |  | 2.06 µM [falling, full curve] |
| CCOc1ccc(NC(=O)C2CCN(S(=O)(=O)c3c(C)noc3C)CC2)cc1 |  |  | 3.66 µM [rising, partial curve] |
| COc1ccc(N(CC(=O)NCCC2=CCCCC2)S(C)(=O)=O)cc1OC | -26.9 | 0.82 µM [falling, full curve, poor fit] | 0.651 µM [falling, full curve, poor fit] |
| COc1ccc(OC)c(S(=O)(=O)NCC(=O)NC2CCCc3ccccc32)c1 (centres undefined) | -0.32 |  | 14.6 µM [rising, single point] |
| O=C(NC1CCCCCC1)c1cccnc1Sc1ccc(Cl)cc1 | 10.1 | 6.51 µM [rising, partial curve] |  |

| SMILES | cell number change [%] | AC50 [1] | AC50 [2] |
| --- | --- | --- | --- |
| O=C(Cc1c(F)cccc1Cl)NCCc1c[nH]c2ccccc12 | -1.32 |  | 5.62 µM [falling, single point] |
| CCC(C)NC(=O)CSc1nc2n[nH]c(C)c2c(=N)n1-c1ccc(OC)cc1 (centres undefined) | -13.1 |  |  |
| C/C(=N\NC(=O)c1ccc(Cn2cc([N+](=O)[O-])cn2)o1)c1cccc(NC(=O)c2cccnc2)c1 | -0.689 |  | 6.51 µM [rising, single point] |
| Cc1cc(Nc2ccc(C(=O)O)cc2)n2nc(C)nc2n1 | -27.8 | 1.03 µM [falling, full curve, poor fit] | 3.66 µM [falling, full curve] |
| COCCn1c(SCC(=O)Nc2ccccc2OC)nnc1-c1ccco1 | 6.41 |  | 6.51 µM [rising, partial curve, poor fit] |
| CNc1nccc(-c2ccc(F)cc2)c1C#N | 23.3 |  |  |
| CCOC(=O)[C@H]1[C@H]2COc3ccc(C)cc3[C@@H]2N2C(=O)c3cc(Cl)ccc3NC(=O)[C@@]12C | -6.99 |  | 18.4 µM [falling, single point] |
| COc1ccc(CC(=O)NCCC2=CCCCC2)cc1 | 6.89 | 6.51 µM [rising, single point] |  |
| O=C1C2CCCN2C(c2ccc(F)cc2)N1c1nccs1 (centres undefined) | -13.7 |  | 0.231 µM [falling, full curve] |
| Cc1ccc(C)c(OCCCCn2ccnc2)c1 | 111 | 1.46 µM [rising, full curve] | 2.06 µM [rising, full curve] |
| O=C(COc1ccc(Cl)cc1)NNC(=O)c1ccccc1C(=O)O | 22.3 |  | 6.51 µM [rising, partial curve, poor fit] |
| CC(=O)Nc1ccc(S(=O)(=O)N2CCNC(=O)CC2)cc1 | 18.2 |  |  |
| Cc1cc(C)n(CCOc2ccc(Br)cc2)n1 | -13.6 |  | 8.2 µM [rising, partial curve] |
| CCN(CC)S(=O)(=O)c1cccc(-c2nnc(SCC(=O)NC3CCCCCC3)n2N)c1 |  | 6.51 µM [falling, single point] | 0.651 µM [falling, full curve, poor fit] |
| CCC(C)N1C(=O)S/C(=C/c2ccc(Sc3nc4ccccc4[nH]3)o2)C1=O (centres undefined) | -12.4 | 3.26 µM [rising, single point] | 6.51 µM [rising, single point] |
| Cc1ccc(N(CC(=O)Nc2ccc(-c3nc4ccc(C)cc4s3)cc2)S(C)(=O)=O)cc1 | -27.4 |  | 13 µM [falling, partial curve] |
| CCOC(=O)Cc1csc(NC(=O)c2c(-c3c(Cl)cccc3Cl)noc2C)n1 | -8.51 |  | 2.31 µM [falling, partial curve, poor fit] |
| CCN(CC)S(=O)(=O)c1ccc(N2CCN(c3ccccc3OC)CC2)c(N)c1 | -6.72 |  |  |
| O=C(Cn1c2ccccc2c2nc3n(c(=O)c21)CCS3)Nc1ccccc1 | 136 | 29.1 µM [rising, single point] | 0.13 µM [falling, full curve, poor fit] |
| O=C(Nc1ccc(-n2ccc(C(F)(F)F)n2)cc1)Nc1cccc(Cl)c1 | -17.2 |  | 0.651 µM [falling, single point] |

Among those listed so far, 10 have four or more nitrogen atoms.

| SMILES | cell number change [%] | AC50 [1] | AC50 [2] |
| --- | --- | --- | --- |
| CCCCOC(=O)C1=C(C)Nc2ncnn2C1c1cccc(OC)c1 (centres undefined) | -31.8 | 29.1 µM [falling, single point] |  |
| C/C(=N\N=C\c1ccccc1)c1nnn(-c2nonc2N)c1C | 29.2 |  | 32.6 µM [rising, partial curve, poor fit] |
| CCC(C)NC(=O)CSc1nc2n[nH]c(C)c2c(=N)n1-c1ccc(OC)cc1 (centres undefined) | -13.1 |  |  |
| C/C(=N\NC(=O)c1ccc(Cn2cc([N+](=O)[O-])cn2)o1)c1cccc(NC(=O)c2cccnc2)c1 | -0.689 |  | 6.51 µM [rising, single point] |
| Cc1cc(Nc2ccc(C(=O)O)cc2)n2nc(C)nc2n1 | -27.8 | 1.03 µM [falling, full curve, poor fit] | 3.66 µM [falling, full curve] |
| COCCn1c(SCC(=O)Nc2ccccc2OC)nnc1-c1ccco1 | 6.41 |  | 6.51 µM [rising, partial curve, poor fit] |
| CCN(CC)S(=O)(=O)c1cccc(-c2nnc(SCC(=O)NC3CCCCCC3)n2N)c1 |  | 6.51 µM [falling, single point] | 0.651 µM [falling, full curve, poor fit] |
| CCN(CC)S(=O)(=O)c1ccc(N2CCN(c3ccccc3OC)CC2)c(N)c1 | -6.72 |  |  |
| O=C(Cn1c2ccccc2c2nc3n(c(=O)c21)CCS3)Nc1ccccc1 | 136 | 29.1 µM [rising, single point] | 0.13 µM [falling, full curve, poor fit] |
| O=C(Nc1ccc(-n2ccc(C(F)(F)F)n2)cc1)Nc1cccc(Cl)c1 | -17.2 |  | 0.651 µM [falling, single point] |

(list continues)

| SMILES | cell number change [%] | AC50 [1] | AC50 [2] |
| --- | --- | --- | --- |
| O=C(Nc1ccc(S(=O)(=O)N2CCc3ccccc32)cc1)c1ccc2c(c1)OCO2 | -11.5 | 5.17 µM [rising, single point] | 1.3 µM [rising, full curve] |
| O=S(=O)(c1ccc(Cl)cc1)N1CCC(c2nc3ccccc3[nH]2)CC1 | 60.3 | 29.1 µM [rising, single point] |  |
| CCc1ccc(NC(=O)NC2CCCCCCC2)cc1 | -5.78 |  |  |
| COc1ccccc1NC1CCCCC1NS(=O)(=O)c1ccc(C)cc1 (centres undefined) | -14.4 |  | 0.184 µM [falling, partial curve] |
| O=c1oc2ccccc2n1CSC1=NCCS1 | -27.8 |  |  |
| Cc1ccc(OCCSc2nc(NC(C)C)nc(NC(C)C)n2)cc1 | 13.6 |  | 2.59 µM [rising, full curve] |
| NC(=O)C(c1ccc(Cl)cc1)c1ccc(Sc2ccccc2)nn1 (centres undefined) | 135 | 29.1 µM [rising, single point] |  |
| CC1(C(=O)O)CCC(C(=O)N2CCOCC2)C1(C)C (centres undefined) | -7.22 |  |  |
| Cc1c(NC(=S)NC(=O)CCc2ccccc2)c(=O)n(-c2ccccc2)n1C | 6.82 |  | 0.58 µM [falling, single point] |
| COc1ccc(OC)c(S(=O)(=O)NC2CC(=O)N(c3ccc(C)c(C)c3)C2)c1 (centres undefined) | 63.2 | 11.6 µM [rising, partial curve, poor fit] |  |
| COc1cccc(NS(=O)(=O)c2ccc(NC(C)=O)cc2)c1 |  | 2.59 µM [rising, partial curve] |  |
| Cn1c(/N=C/c2ccccc2[N+](=O)[O-])nc2ccccc21 | 6.73 |  | 0.116 µM [rising, full curve, poor fit] |
| CC(=O)NC1CSCC1OC(C)=O (centres undefined) | -0.325 |  |  |
| COc1ccc(CNC(=O)/C(C#N)=C/c2cccc(OC)c2OC)cc1 | -34 | 16.4 µM [falling, single point] | 18.4 µM [falling, single point] |
| O=C(O)CCCC(=O)Nc1cccc([N+](=O)[O-])c1 | -123 | 18.4 µM [falling, single point] | 11.6 µM [falling, partial curve] |
| CC(CC(=O)N1CCc2ccccc21)c1ccccc1 (centres undefined) |  | 0.82 µM [falling, full curve, poor fit] | 1.3 µM [falling, full curve] |
| CC(C)N(C=O)C1(C(=O)NC2CCCCC2)CCCCC1 | -68.5 | 29.1 µM [falling, single point] |  |
| Cn1ncc(Br)c1C(=O)N1CCOCC1 | 43.7 | 25.9 µM [rising, single point] | 29.1 µM [rising, single point] |
| COc1ccc(-c2cc(C)no2)cc1S(=O)(=O)N1CCOc2ccccc21 | 2.69 |  |  |
| CN(C(=O)c1cccc(NC(=O)c2ccccc2)c1)C1CCCCC1 | 11.4 |  | 29.1 µM [falling, single point] |
